Laboratory results: PubChem BioAssay AID1259425 (University of Nebraska Medical Center, 2018)

Assay: 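Compare each knockdown with KSR1 silencing using changes in marker transcripts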 (primary screen)
Cell system: HCT116 human colon cancer cells
Reagent: siRNA pool against human genes, 50 nM siRNA
Measured: 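mRNA of six signature genes measured together by branched-DNA assay after 50 nM siRNA pool, blank removed, divided by geometric mean of two housekeeping genes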
Scale: BNIP3L mRNA: higher = more BNIP3L transcript after knockdown
In all, the deposit lists about 14,000 reagents; shown is a random part of them. Further read-outs or replicates are left out here. Not given: the time to read-out.

gene	PubChem SID	BNIP3L mRNA, set 1
BRIP1 (GeneID 83990)	SID364003762	0.068
SOAT1 (GeneID 6646)	SID363994243	0.0492
BAP1 (GeneID 8314)	SID363995622	0.0895
NPHS2 (GeneID 7827)	SID363998994	0.118
RITA1 (GeneID 84934)	SID364004224	0.176
COMT (GeneID 1312)	SID363992047	0.117
HLA-DQB1 (GeneID 3119)	SID363993329	0.0667
ZNF267 (GeneID 10308)	SID363994522	0.121
RAB18 (GeneID 22931)	SID364002128	0.116
BLTP2 (GeneID 9703)	SID364005425	0.19
ABHD1 (GeneID 84696)	SID364004092	0.172
DOCK3 (GeneID 1795)	SID363995889	0.0684
NOAZFP (GeneID 27309)	SID363998899	0.0771
USP29 (GeneID 57663)	SID364001891	0.0749
IFNGR1 (GeneID 3459)	SID363991747	0.0742
SLC5A2 (GeneID 6524)	SID363994190	0.0866
CTH (GeneID 1491)	SID363993115	0.156
ETF1 (GeneID 2107)	SID363995689	0.126
INTS5 (GeneID 80789)	SID364003380	0.201
BICC1 (GeneID 80114)	SID364003218	0.217
LPAL2 (GeneID 80350)	SID364002822	0.0898
ACSBG1 (GeneID 23205)	SID363999338	0.146
HSPA5 (GeneID 3309)	SID363996262	0.152
MCPH1 (GeneID 79648)	SID364002901	0.137
HBQ1 (GeneID 3049)	SID363996247	0.153
KDM2A (GeneID 22992)	SID363998220	0.0944
ZNF587 (GeneID 84914)	SID364004206	0.0734
FMO5 (GeneID 2330)	SID363992723	0.211
AIP (GeneID 9049)	SID363995030	0.147
SLC6A11 (GeneID 6538)	SID363998668	0.0638
FBXL2 (GeneID 25827)	SID363998101	0.0867
GAL (GeneID 51083)	SID363999763	0.143
SHARPIN (GeneID 81858)	SID364003539	0.0723
EID1 (GeneID 23741)	SID363998763	0.0551

In a second layout: results already given
gene,PubChem SID,"BNIP3L mRNA, set 1"
NPHS2 (GeneID 7827),SID363998994,0.118
RITA1 (GeneID 84934),SID364004224,0.176
COMT (GeneID 1312),SID363992047,0.117
